Values from PubChem BioAssay AID1259254 (NCATS, 2017).
Assay: 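Gene knock-downs that lead to re-replication, shown by excess G2 DNA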 (primary screen). Cells: human HCT116 colorectal cancer cells. Reagent: single siRNA against human genes. Time to read-out: 3 days. Measurement: 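Nuclei stained with Hoechst and imaged; cell-cycle phase assigned by DNA content; G2 share scaled per plate, non-targeting siRNA 0%, GMNN siRNA 100%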. Direction: G2 robust z-score and G2 cells, % of GMNN control: higher = more G2 cells, more excess DNA replication; raw share of cells in G2: higher = larger share of cells with G2 DNA content. Active means: 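Active siRNAs have a G2 robust z of 5 or more median absolute deviations over the median, which in these data means about 38% or higher of GMNN control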.
The whole screen tested about 59,000 reagents; below is an unselected part. About 1,550 of all reagents (2.6%) count as active. 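G2 share is only a proxy for re-replication; each gene was hit by three separate siRNAs, and active genes were retested.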 The raw values are shown without normalisation. Not given: the amount of reagent.

gene | PubChem SID | G2 robust z-score | G2 cells, % of GMNN control | raw share of cells in G2 (%) | call
CLEC2B | SID160723593 | -0.496 | -0.524 | 5.09 | inactive
CLEC2B | SID160723594 | -0.0489 | 2.62 | 5.04 | inactive
CLEC2B | SID160723595 | 3.04 | 24.3 | 12.3 | inactive
COX6A1 | SID160730596 | -0.893 | -3.32 | 2.95 | inactive
COX6A1 | SID160746903 | -0.668 | -1.73 | 4.34 | inactive
COX6A1 | SID160746914 | -0.861 | -3.09 | 3.86 | inactive
YPEL5 | SID160741142 | 0.509 | 6.55 | 5.95 | inactive
YPEL5 | SID160741143 | 0.586 | 7.09 | 7.26 | inactive
YPEL5 | SID160741145 | 0.245 | 4.69 | 4.74 | inactive
NAIP | SID160770841 | 0.696 | 7.86 | 6.75 | inactive
NAIP | SID160770843 | -0.374 | 0.333 | 3.3 | inactive
NAIP | SID160770844 | -0.363 | 0.412 | 2.9 | inactive
NAIP | SID160777768 | 2.34 | 19.4 | 13.2 | inactive
NAIP | SID160777769 | 0.44 | 6.06 | 7.7 | inactive
NAIP | SID160777770 | -0.372 | 0.353 | 3.31 | inactive
TUBA4A | SID160718446 | 1.24 | 11.7 | 10.5 | inactive
TUBA4A | SID160718447 | 1.53 | 13.8 | 9 | inactive
TUBA4A | SID160718448 | -0.273 | 1.05 | 4.65 | inactive
EGFL7 | SID160731357 | 0.597 | 7.17 | 5.88 | inactive
EGFL7 | SID160740215 | -0.507 | -0.601 | 2.58 | inactive
EGFL7 | SID160740216 | -1.07 | -4.58 | 3.84 | inactive
IGFBPL1 | SID160733127 | 4.53 | 34.9 | 18.2 | inactive
IGFBPL1 | SID160764943 | -0.715 | -2.06 | 3.28 | inactive
IGFBPL1 | SID160764944 | -0.383 | 0.269 | 3.38 | inactive
MBD3 | SID160741433 | -0.0911 | 2.33 | 5.1 | inactive
MBD3 | SID160741434 | -0.127 | 2.07 | 4.59 | inactive
MBD3 | SID160741435 | 1.38 | 12.7 | 11.7 | inactive
SOD1 | SID160758617 | 3.92 | 30.6 | 16 | inactive
SOD1 | SID160758721 | 3.76 | 29.4 | 13.7 | inactive
SOD1 | SID160758826 | 0.924 | 9.47 | 7.79 | inactive
FBXL22 | SID160763048 | 4.1 | 31.8 | 15.2 | inactive
FBXL22 | SID160763049 | 0.0979 | 3.66 | 4.46 | inactive
FBXL22 | SID160763050 | -0.528 | -0.75 | 3.04 | inactive
OR4Q3 | SID160768068 | -0.569 | -1.04 | 3.22 | inactive
OR4Q3 | SID160768069 | -0.167 | 1.79 | 4.1 | inactive
OR4Q3 | SID160768070 | -0.719 | -2.09 | 2.41 | inactive

A stretch of the results above, for reference:
gene | PubChem SID | G2 robust z-score | G2 cells, % of GMNN control | raw share of cells in G2 (%) | call
FBXL22 | SID160763048 | 4.1 | 31.8 | 15.2 | inactive
FBXL22 | SID160763049 | 0.0979 | 3.66 | 4.46 | inactive
FBXL22 | SID160763050 | -0.528 | -0.75 | 3.04 | inactive
OR4Q3 | SID160768068 | -0.569 | -1.04 | 3.22 | inactive
OR4Q3 | SID160768069 | -0.167 | 1.79 | 4.1 | inactive

The results go on.
gene | PubChem SID | G2 robust z-score | G2 cells, % of GMNN control | raw share of cells in G2 (%) | call
OR11A1 | SID160738064 | 1.76 | 15.3 | 10.2 | inactive
OR11A1 | SID160738065 | 2.55 | 20.9 | 13 | inactive
OR11A1 | SID160738067 | 1.64 | 14.5 | 8.38 | inactive
CIRBP-AS1 | SID160732553 | -0.37 | 0.364 | 3.2 | inactive
CIRBP-AS1 | SID160758634 | -0.428 | -0.0473 | 3.81 | inactive
CIRBP-AS1 | SID160758635 | -0.987 | -3.98 | 1.68 | inactive
HDLBP | SID160774903 | -1.31 | -6.25 | 2.77 | inactive
HDLBP | SID160774904 | 0.933 | 9.53 | 9.31 | inactive
HDLBP | SID160774905 | -0.0397 | 2.69 | 5.19 | inactive
SRP68 | SID160717347 | -0.601 | -1.26 | 4.11 | inactive
SRP68 | SID160717348 | 1.03 | 10.2 | 7.33 | inactive
SRP68 | SID160717349 | -0.988 | -3.99 | 4.34 | inactive
OSGEP | SID160743982 | -0.487 | -0.459 | 5.4 | inactive
OSGEP | SID160743983 | -0.156 | 1.87 | 5.57 | inactive
OSGEP | SID160743984 | -0.163 | 1.82 | 4.59 | inactive
SMPDL3B | SID160738666 | 1.22 | 11.5 | 11.4 | inactive
SMPDL3B | SID160738669 | -1.19 | -5.38 | 2.4 | inactive
SMPDL3B | SID160738670 | 0.277 | 4.92 | 5.6 | inactive
RRN3 | SID160742040 | 0.401 | 5.79 | 4.84 | inactive
RRN3 | SID160742041 | -0.758 | -2.37 | 4.84 | inactive
RRN3 | SID160742042 | 3.21 | 25.5 | 11.7 | inactive
ANKAR | SID160759009 | 0.263 | 4.82 | 5.44 | inactive
ANKAR | SID160759010 | 0.497 | 6.46 | 4.91 | inactive
ANKAR | SID160759011 | -0.344 | 0.546 | 3.26 | inactive
ABCB4 | SID160714233 | 0.655 | 7.57 | 7.26 | inactive
ABCB4 | SID160714234 | -0.627 | -1.45 | 3.87 | inactive
ABCB4 | SID160714235 | 1.98 | 16.9 | 8.59 | inactive
TMEM256 | SID160724951 | -0.638 | -1.52 | 2.61 | inactive
TMEM256 | SID160732811 | 0.375 | 5.6 | 4.98 | inactive
TMEM256 | SID160762231 | -1.2 | -5.48 | 1.59 | inactive
FAM27E5 | SID160725003 | 0.538 | 6.75 | 6.1 | inactive
FAM27E5 | SID160725004 | -0.0759 | 2.43 | 3.99 | inactive
FAM27E5 | SID160725005 | 0.49 | 6.41 | 5.22 | inactive
